Literature values in patent publication US20180214412A1, “IMMEDIATE RELEASE CANNABINOID FORMULATIONS” (CannTab Therapeutics Limited, priority 2017, published 2018).

## CCCCCc1cc(O)c2c(c1)OC(C)(C)[C@@H]1CCC(C)=C[C@@H]21 [Dronabinol, (−)-trans-Δ9-tetrahydrocannabinol]
  solubility in water: insoluble
